Assay results from patent publication US20110130286A1, “Piperazine Compounds with Herbicidal Effect” (BASF SE, priority 2008, published 2011).
Some entries share one result that the patent states for a list of compounds.

What was measured:
Experiment in all cases: greenhouse test, pre-emergence treatment
Settings in all cases: scale from 0 to 100
SETFA = format: in vivo, Setaria faberi
ECHCG = format: in vivo, Echinochloa crus-galli
Excerpt: (§1) The culture containers used were plastic flowerpots containing loamy sand with approximately 3.0% of humus as the substrate. The seeds of the test plants were sown separately for each species.
(§2) For the pre-emergence treatment, the active compounds, which had been suspended or emulsified in water, were applied directly after sowing by means of finely distributing nozzles. The containers were irrigated gently to promote germination and growth and subsequently covered with transparent plastic hoods until the plants had rooted. This cover caused uniform germination of the test plants, unless this has been impaired by the active compounds.
(§3) Depending on the species, the plants were kept at 10-25° C. or 20-35° C. The test period extended over 2 to 4 weeks. During this time, the plants were tended, and their response to the individual treatments was evaluated.
(§4) Evaluation was carried out using a scale from 0 to 100. 100 means no emergence of the plants, or complete destruction of at least the aerial moieties, and 0 means no damage, or normal course of growth. A good herbicidal activity is given at values of at least 70 and a very good herbicidal activity is given at values of at least 85.
(§5) The respective stated components A and B were formulated as a 5% by weight strength or 10% by weight strength emulsion concentrate, or a commercial formulation of component B was used, and, with addition of the amount of solvent system, introduced into the spray liquor used for applying the active compound. In the examples, the solvent used was water.
(§6) The test period extended over 20 or 21 days. During this time, the plants were tended, and their reactions to the treatments with active compound were monitored.
(§7) In the examples below, using the method of S. R. Colby (1967) “Calculating synergistic and antagonistic responses of herbicide combinations”, Weeds 15, p. 22ff., the value E, which is expected if the activity of the individual active compounds is only additive, was calculated.
(§8) What was evaluated was the damage by the chemical compositions using a scale of from 0 to 100%, in comparison to the untreated control plants. 0 means no damage, and 100 means complete destruction of the plants.

APESV = format: in vivo, Apera spica-venti
Excerpt: as §1, §2, §3, §4, §5, §6, §7, §8

Compound | herbicidal activity against SETFA (SETFA; application rate 0.5 kg/ha) | herbicidal activity against ECHCG (ECHCG; application rate 0.5 kg/ha) | herbicidal activity against APESV (APESV; application rate 0.5 kg/ha) | herbicidal activity against SETFA (SETFA; application rate 1.0 kg/ha) | herbicidal activity against ECHCG (ECHCG; application rate 1.0 kg/ha) | herbicidal activity against APESV (APESV; application rate 1.0 kg/ha)
CCN1C(=O)C(=Cc2cccnc2OC)N(C)C(=O)C1(C)Cc1ccccc1 (racemic) [I-512] | very good (a very good herbicidal activity is given at values of at least 85) | very good (a very good herbicidal activity is given at values of at least 85) | very good (a very good herbicidal activity is given at values of at least 85) |  |  | 
C=CCN1C(=O)C(=Cc2cccnc2C#N)N(C)C(=O)C1(C)Cc1ccccc1 (racemic) [I-129] |  |  |  | very good (a very good herbicidal activity is given at values of at least 85) | very good (a very good herbicidal activity is given at values of at least 85) | very good (a very good herbicidal activity is given at values of at least 85)
CCOc1ncccc1CC1C(=O)N(CC)C(C)(Cc2ccccc2)C(=O)N1C (racemic) [II-38] | very good (a very good herbicidal activity is given at values of at least 85) | very good (a very good herbicidal activity is given at values of at least 85) | very good (a very good herbicidal activity is given at values of at least 85) |  |  | 
CC(C)CN1C(=O)C(=Cc2cccnc2Br)N(C)C(=O)C1(C)Cc1ccccc1 (racemic) [I-463] | very good (a very good herbicidal activity is given at values of at least 85) |  | very good (a very good herbicidal activity is given at values of at least 85) |  |  | 
CN1C(=O)C(C)(Cc2ccc(F)cc2)N(C)C(=O)C1=Cc1cccnc1C#N (racemic) [I-203] | very good (a very good herbicidal activity is given at values of at least 85) | very good (a very good herbicidal activity is given at values of at least 85) | very good (a very good herbicidal activity is given at values of at least 85) |  |  | 
CN1C(=O)C(C)(Cc2ccccc2)N(C(=O)C(C)(C)C)C(=O)C1=Cc1cccnc1C#N (racemic) [I-487] | very good (a very good herbicidal activity is given at values of at least 85) |  | very good (a very good herbicidal activity is given at values of at least 85) |  |  | 
CCCN1C(=O)C(=Cc2cccnc2C#N)N(C)C(=O)C1(C)Cc1ccccc1 (racemic) [I-127] |  |  |  | very good (a very good herbicidal activity is given at values of at least 85) | very good (a very good herbicidal activity is given at values of at least 85) | very good (a very good herbicidal activity is given at values of at least 85)
C#CCN1C(=O)C(=Cc2cccnc2C#N)N(C)C(=O)C1(C)Cc1ccccc1 (racemic) [I-130] |  |  |  | very good (a very good herbicidal activity is given at values of at least 85) | very good (a very good herbicidal activity is given at values of at least 85) | very good (a very good herbicidal activity is given at values of at least 85)
CN1C(=O)C(C)(Cc2ccccc2)N(C)C(=O)C1=Cc1cc(C#N)cnc1C#N (racemic) [I-90] |  |  |  |  | very good (a very good herbicidal activity is given at values of at least 85) | 
CC(C)CN1C(=O)C(=Cc2cccnc2C#N)N(C)C(=O)C1(C)Cc1ccccc1 (racemic) [I-447] | very good (a very good herbicidal activity is given at values of at least 85) | very good (a very good herbicidal activity is given at values of at least 85) | very good (a very good herbicidal activity is given at values of at least 85) |  |  | 
CCOc1ncccc1C=C1C(=O)N(C)C(C)(Cc2ccccc2)C(=O)N1C (racemic) [I-36] | very good (a very good herbicidal activity is given at values of at least 85) | very good (a very good herbicidal activity is given at values of at least 85) | very good (a very good herbicidal activity is given at values of at least 85) |  |  | 
CN1C(=O)C(C)(Cc2ccccc2)N(C)C(=O)/C1=C/c1cccnc1C#N (stereo not drawn) [I-2] |  |  |  | very good (a very good herbicidal activity is given at values of at least 85) | very good (a very good herbicidal activity is given at values of at least 85) | very good (a very good herbicidal activity is given at values of at least 85)
CN1C(=O)C(C)(Cc2ccccc2)N(C)C(=O)C1=Cc1cccnc1-c1ccnn1C (racemic) [I-32] |  |  |  |  |  | very good (a very good herbicidal activity is given at values of at least 85)
CCOc1ncccc1CC1C(=O)N(C)C(C)(Cc2ccccc2)C(=O)N1C (racemic) [II-10] | very good (a very good herbicidal activity is given at values of at least 85) | very good (a very good herbicidal activity is given at values of at least 85) | very good (a very good herbicidal activity is given at values of at least 85) |  | very good (a very good herbicidal activity is given at values of at least 85) | 
CCCCc1ncccc1C=C1C(=O)N(C)C(C)(Cc2ccccc2)C(=O)N1C (racemic) [I-489] | very good (a very good herbicidal activity is given at values of at least 85) | very good (a very good herbicidal activity is given at values of at least 85) | very good (a very good herbicidal activity is given at values of at least 85) |  |  | 
CCCN1C(=O)C(Cc2cccnc2OC)N(C)C(=O)C1(C)Cc1ccccc1 (racemic) [II-76] | very good (a very good herbicidal activity is given at values of at least 85) | very good (a very good herbicidal activity is given at values of at least 85) | very good (a very good herbicidal activity is given at values of at least 85) |  |  | 
CN1C(=O)C(C)(Cc2ccccc2)N(C)C(=O)C1Cc1cccnc1OCC(F)(F)F (racemic) [II-24] | very good (a very good herbicidal activity is given at values of at least 85) | very good (a very good herbicidal activity is given at values of at least 85) | very good (a very good herbicidal activity is given at values of at least 85) |  |  | 
CC(=O)c1ncccc1C=C1C(=O)N(C)C(C)(Cc2ccccc2)C(=O)N1C (racemic) [I-324] | very good (a very good herbicidal activity is given at values of at least 85) | very good (a very good herbicidal activity is given at values of at least 85) | very good (a very good herbicidal activity is given at values of at least 85) |  |  | 
CN1C(=O)C(C)(Cc2ccccc2)NC(=O)C1=Cc1cccnc1C#N (racemic) [I-133] |  |  |  | very good (a very good herbicidal activity is given at values of at least 85) | very good (a very good herbicidal activity is given at values of at least 85) | very good (a very good herbicidal activity is given at values of at least 85)
CN1C(=O)C(C)(Cc2ccccc2)N(C)C(=O)C1Cc1cccnc1OC(F)F (racemic) [II-49] |  | very good (a very good herbicidal activity is given at values of at least 85) | very good (a very good herbicidal activity is given at values of at least 85) |  |  | 
